Values quoted from earlier work, collected in PMC10955584, “New Benzimidazole-Triazole Derivatives as Topoisomerase I Inhibitors: Design, Synthesis, Anticancer Screening, and Molecular Modeling Studies” (ACS Omega, 2024).

System: HepG-2, HCT-116, MCF-7,and HeLa cancer cells lines
Set-up: method as in PMID 36651111
Conditions: range over four cell lines; read-out: IC50 against HepG-2, HCT-116, MCF-7 and HeLa cancer cell lines; cited from earlier work

## COc1cccc2c1C(=O)c1c(O)c3c(c(O)c1C2=O)C[C@@](O)(C(=O)CO)C[C@@H]3O[C@H]1C[C@H](N)[C@H](O)[C@H](C)O1 [doxorubicin, reference compound]
  IC50: 4.17 to 5.57 µM
